Reference: PubChem BioAssay AID1671195 (Yale University, 2021)

- Purpose: 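Regulators of LDL receptor activity judged by labelled LDL uptake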 (primary screen)
- Cells: human Huh7 hepatoma cells
- Reagent: siRNA pool against human genes, 18 nM
- Timing: about 2 to 2.5 days of knockdown, then 8 h LDL uptake
- Challenge: DiI-labelled LDL at 30 µg/ml for 8 h, in lipoprotein-deficient serum medium
- Measurement: 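Fluorescent LDL signal imaged in cells, scaled to the plate median, robust z-score for each replicate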
- Scale: robust z-score: higher = more LDL uptake after knockdown
- Rule for the call: 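a gene counts as active if at least two replicate z-scores exceed ±2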
The whole screen tested about 22,000 reagents; below is an unselected part. About 1,510 of them (6.9%) count as active. 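Active includes knockdowns raising or lowering LDL uptake; positive z-scores mean more uptake, negative mean less.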 Unmarked entries are inactive. No sequences are given here.

Target gene	robust z-score, replicate 1	robust z-score, replicate 2	robust z-score, replicate 3
KRT85 (keratin 85)	1.72	0.565	1.03
TGM5 (transglutaminase 5)	0.816	0.398	0.741
P2RX5 (purinergic receptor P2X 5)	-1.03	-1.37	-1.03
MAP3K5 (mitogen-activated protein kinase kinase kinase 5)	0.998 (active)	2.71	2.63
SI (sucrase-isomaltase)	-1.4	-1	-1.27
TIPE1 (TNF alpha induced protein 8 like 1)	-0.838	-0.454	0.135
UGT2A3 (UDP glucuronosyltransferase family 2 member A3)	-0.705	-0.575	-0.368
PSMD13 (proteasome 26S subunit, non-ATPase 13)	1.13	0.801	-0.323
GIT2 (GIT ArfGAP 2)	-1.48	-2.14	-1.48
EMC7 (ER membrane protein complex subunit 7)	0.435	1.11	1.4
SAXO4 (stabilizer of axonemal microtubules 4)	-0.527	-0.516	-0.22
CFAP210 (cilia and flagella associated protein 210)	0.355	1.74	-0.0635
MARS1 (methionyl-tRNA synthetase 1)	0.47	1.13	0.0208
ZDHHC4 (zDHHC palmitoyltransferase 4)	0.47	2.05	1.31
DUSP28 (dual specificity phosphatase 28)	-0.683	-0.436	-0.3
FAM184B (family with sequence similarity 184 member B)	-0.462	1.78	2.18
ZNF789 (zinc finger protein 789)	-0.291	-0.462	-0.386
LOC729222	-0.656	-0.628	-0.523
LOC401544 (retired record)	1.45	-0.0129	1.34
ARRDC2 (arrestin domain containing 2)	-2.02	-0.822	-0.371
MISP (mitotic spindle positioning)	-2.35 (active)	-2.79	-2.66
PARD3 (par-3 family cell polarity regulator)	0.301	0.387	0.396
MYLIP (myosin regulatory light chain interacting protein)	-0.298	1.66	-0.335
ARIH1 (ariadne RBR E3 ubiquitin protein ligase 1)	-0.923	-1.75	-2.33
PRR19 (proline rich 19)	-0.267	-0.304	-0.399
LOC150739 (retired record)	1.63	0.735	0.338
CRELD1 (CRELD disulfide isomerase 1)	-0.722	-0.211	-0.0751
SORT1 (sortilin 1)	0.101	-0.299	-0.371
ASB10 (ankyrin repeat and SOCS box containing 10)	0.00219	-0.251	0.373
ZNF329 (zinc finger protein 329)	2.12 (active)	1.66	2.27
MAPK6 (mitogen-activated protein kinase 6)	-0.383	0.119	-0.0325
CSF2RB (colony stimulating factor 2 receptor subunit beta)	2.86	1.44	1.88
MCU (mitochondrial calcium uniporter)	0.541	0.602	-0.281
PHOSPHO2 (phosphatase, orphan 2)	-0.781	-0.047	-0.177
FAM237A (family with sequence similarity 237 member A)	-0.481	-0.557	-0.429
DOCK3 (dedicator of cytokinesis 3)	-1.69	-0.662	-1.65
TPD52L3 (TPD52 like 3)	-0.233	0.0897	-0.364
PCDHGA12 (protocadherin gamma subfamily A, 12)	-0.31	0.341	0.0447
NUP62CL (nucleoporin 62 C-terminal like)	0.411	-0.0863	1.49
TMEM151A (transmembrane protein 151A)	0.724	0.651	0.459
OR4C6 (olfactory receptor family 4 subfamily C member 6)	-1.24	-1.53	-1.25
PROSER3 (proline and serine rich 3)	0.0371	1.74	0.303
UBL4B (ubiquitin like 4B)	0.41	0.581	-0.00801
COMMD3 (COMM domain containing 3)	-0.575	0.429	0.0543
HDGF (heparin binding growth factor)	0.36	-0.103	0.185
ITGB1 (integrin subunit beta 1)	-0.621	-1.33	0.0374

Targets above whose gene name begins with M or m:
Target gene	robust z-score, replicate 1	robust z-score, replicate 2	robust z-score, replicate 3
MAP3K5 (mitogen-activated protein kinase kinase kinase 5)	0.998 (active)	2.71	2.63
MARS1 (methionyl-tRNA synthetase 1)	0.47	1.13	0.0208
MISP (mitotic spindle positioning)	-2.35 (active)	-2.79	-2.66
MYLIP (myosin regulatory light chain interacting protein)	-0.298	1.66	-0.335
MAPK6 (mitogen-activated protein kinase 6)	-0.383	0.119	-0.0325
MCU (mitochondrial calcium uniporter)	0.541	0.602	-0.281
